From paper PMC9637222, “Autoinducer-2 and bile salts induce c-di-GMP synthesis to repress the T3SS via a T3SS chaperone” (Nature Communications, 2022)

Sequences of proteins named here, by UniProt entry; tags and fusion partners are left off. A change or cut given only in a name is not applied to a line headed by its entry.
UniProt Q56019: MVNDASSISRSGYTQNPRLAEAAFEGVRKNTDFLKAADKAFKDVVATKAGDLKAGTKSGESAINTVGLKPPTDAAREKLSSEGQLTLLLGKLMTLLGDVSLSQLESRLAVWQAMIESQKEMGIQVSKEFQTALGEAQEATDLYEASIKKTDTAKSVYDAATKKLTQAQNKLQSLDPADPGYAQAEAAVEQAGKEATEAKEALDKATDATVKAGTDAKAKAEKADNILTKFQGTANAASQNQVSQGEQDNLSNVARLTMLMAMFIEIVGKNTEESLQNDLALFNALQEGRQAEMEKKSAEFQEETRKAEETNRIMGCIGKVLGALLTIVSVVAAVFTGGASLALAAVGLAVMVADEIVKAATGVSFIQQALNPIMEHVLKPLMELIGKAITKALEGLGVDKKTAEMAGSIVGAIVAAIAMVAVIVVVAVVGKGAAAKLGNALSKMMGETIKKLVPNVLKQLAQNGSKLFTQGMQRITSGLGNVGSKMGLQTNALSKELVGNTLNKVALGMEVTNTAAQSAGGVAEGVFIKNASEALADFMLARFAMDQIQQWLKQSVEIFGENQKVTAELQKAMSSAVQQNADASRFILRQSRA
UniProt P69066: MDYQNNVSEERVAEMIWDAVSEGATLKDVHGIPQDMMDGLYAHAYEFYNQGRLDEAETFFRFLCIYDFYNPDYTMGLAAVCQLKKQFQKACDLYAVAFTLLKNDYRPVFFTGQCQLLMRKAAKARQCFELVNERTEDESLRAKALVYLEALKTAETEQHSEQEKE

Molecular target: SipB (tag-free, purified) (S. Typhimurium) (UniProt Q56019)
Test: ITC; both purified

## SicA (tag-free, purified) (from UniProt P69066 1-165)
  binding: binds

No constants are given. Whether binding was seen depends on the method and setting. Binding calls can cover weak binding; strength is not graded here.
